# Experimental data: PubChem BioAssay AID1671190 (National Center for Advancing Translational Sciences (NCATS), 2021)
# By UniProt entry, the sequences of proteins in these tests, tags left out. Where a name states a change or a piece, a line headed by the entry shows the natural chain unless it says otherwise.
# UniProt P18054: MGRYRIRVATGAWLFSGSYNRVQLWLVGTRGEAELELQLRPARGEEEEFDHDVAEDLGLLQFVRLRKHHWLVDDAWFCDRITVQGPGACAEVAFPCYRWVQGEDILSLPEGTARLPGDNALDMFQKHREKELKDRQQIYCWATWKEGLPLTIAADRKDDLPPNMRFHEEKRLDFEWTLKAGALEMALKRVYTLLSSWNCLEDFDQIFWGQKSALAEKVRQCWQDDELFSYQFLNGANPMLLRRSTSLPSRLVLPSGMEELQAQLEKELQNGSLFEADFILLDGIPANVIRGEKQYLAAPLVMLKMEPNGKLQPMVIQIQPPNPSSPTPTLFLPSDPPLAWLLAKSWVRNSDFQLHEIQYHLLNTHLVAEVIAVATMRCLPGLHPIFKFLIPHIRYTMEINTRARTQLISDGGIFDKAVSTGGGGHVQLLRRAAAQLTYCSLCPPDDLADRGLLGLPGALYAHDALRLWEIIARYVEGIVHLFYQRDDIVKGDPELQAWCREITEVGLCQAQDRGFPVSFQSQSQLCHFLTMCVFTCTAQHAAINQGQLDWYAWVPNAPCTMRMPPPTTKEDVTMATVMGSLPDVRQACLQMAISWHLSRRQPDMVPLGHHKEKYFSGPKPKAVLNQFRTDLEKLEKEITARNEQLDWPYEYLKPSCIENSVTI
# Out of some 580,000 compounds screened, about 6,100 (1.1%) were called active. The shares of active, inactive and inconclusive entries below differ from those in the screen. Calls follow the shape of the dose curve; as a rule, active = well fitted inhibition curve with a large enough effect; inconclusive = small, poorly fitted or top-dose-only effect, or another doubt; inactive = no such curve, though single readings can be large or run the other way. Potencies of inconclusive entries are doubtful fits and often do not repeat.
# Molecular target: Polyunsaturated fatty acid lipoxygenase ALOX12 (Homo sapiens) (UniProt P18054)
# Assay: Primary qHTS assay for inhibitors of human arachidonate 12S-lipoxygenase (ALOX12): Round 2
# Details: purified 12hLO, xylenol orange hydroperoxide absorbance; activity change, negative = inhibition: at 108 µM (top of the series) unless noted
# In short: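 Purified human 12hLO (150 nM final) in 25 mM Hepes, 0.01% Triton X-100, pH 7.0 was preincubated 15 min at room temperature with compound. Then 40 uM arachidonic acid was added, 30 min. Hydroperoxide was read by Fe-XO absorbance ratio 573/405 nm.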
# % is scaled to controls: 0 for no effect and ±100 for the full control effect; potency is read from the fitted curve at half-maximal effect.
Structure (SMILES),"activity change, negative = inhibition",Potency
Cc1cc(C(=O)N[C@H]2[C@H](O)[C@H](O)C[C@@H]2c2cccnc2)nn1C,inactive: 30% [at 176 µM],
COc1ccc(C(=O)Oc2ccccc2C)cc1Br,,"inconclusive: 3.16 µM [inhibitor, full curve, poor fit]"
O=C(Oc1ccc(Br)cc1C(=S)N1CCOCC1)c1ccc([N+](=O)[O-])cc1[N+](=O)[O-],,"inconclusive: 44.7 µM [inhibitor, partial curve, poor fit]"
CN(C)c1ccc2c(c1)Sc1cc(N(C)C)ccc1N2C(=O)c1ccccc1,,"inconclusive: 35.5 µM [inhibitor, single point]"
Cc1cccc(C(=O)O)c1NS(=O)(=O)c1ccc(S(=O)(=O)N2CCCC2)cc1,,"inconclusive: 5.01 µM [inhibitor, full curve]"
CC12CCC(=O)N1C(C(=O)Nc1nccs1)CS2 (configuration not stated),,"inconclusive: 4.47 µM [inhibitor, full curve, poor fit]"
O=C(/C=C/c1ccccc1OCc1cccnc1)c1ccc(N2CCOCC2)cc1,,"inconclusive: 31.6 µM [inhibitor, partial curve, poor fit]"
Cn1c(C(=O)N2CCN(c3cccc(C(F)(F)F)c3)CC2)cc2sccc21,inactive: -33.5%,
COCCN1C(=O)CO[C@H]2CN(C3CCN(C(C)=O)CC3)C[C@H]21,inactive: 12.4% [at 176 µM],
Cc1cccc(C)c1OCC(O)CN1CCc2ccccc2C1 (configuration not stated),,"inconclusive: 100 µM [inhibitor, partial curve, poor fit]"
O=[N+]([O-])/C(C(Cl)=C(Cl)Cl)=C(/Sc1ccccc1)N1CCCCC1,,"inconclusive: 112 µM [inhibitor, single point]"
C#CCOCCOCCOCCNc1nc(N2CCN(C(=O)[C@H](CCCCN)n3cc(CCCC)nn3)CC2)nc(N2CCN(C(=O)[C@H](CCCCN)n3cc(CCCC)nn3)CC2)n1,,"inconclusive: 44.7 µM [inhibitor, partial curve, poor fit]"
COc1ccc(CNc2ccccc2)cc1Br,inactive: -0.899%,
Cc1cc(OCC(=O)Nc2ccc3oc(-c4ccncc4)nc3c2)ccc1Cl,,inactive
O=c1nc(N(c2ccccc2)c2ccccc2)[nH]c(=O)[nH]1,,"inconclusive: 50.1 µM [inhibitor, partial curve, poor fit]"
C=CC[C@@H](Cc1ccc(F)cc1)C(=O)OC[C@H]1CCCN1C(=O)[C@@H](CC=C)CC(=O)N[C@H](CO)Cc1ccccc1,inactive: -11.3%,
Fc1ccc(NC(=S)NCCCc2ccccc2)cc1,,"inconclusive: 50.1 µM [inhibitor, partial curve, poor fit]"
CCCCOc1ccc(CC(=O)NO)cc1,,"inconclusive: 8.91 µM [inhibitor, full curve, poor fit]"
COc1ccc(-n2c(=S)[nH]c3ccccc32)cc1,,active: 28.2 µM
O=S(=O)(c1ccc(=S)[nH]c1)N1CCOCC1,,"inconclusive: 44.7 µM [inhibitor, partial curve, poor fit]"
O=C1NC2(CCN(C(=O)c3ccccn3)CC2)COc2ccccc21,inactive: 30.7% [at 176 µM],

# Among those listed so far, these have a Cl atom:
Structure (SMILES),"activity change, negative = inhibition",Potency
O=[N+]([O-])/C(C(Cl)=C(Cl)Cl)=C(/Sc1ccccc1)N1CCCCC1,,"inconclusive: 112 µM [inhibitor, single point]"
Cc1cc(OCC(=O)Nc2ccc3oc(-c4ccncc4)nc3c2)ccc1Cl,,inactive

# The listing continues.

Structure (SMILES),"activity change, negative = inhibition",Potency
CCOC(=O)Cc1cc(=O)n2[nH]c(C)cc2n1,,"inconclusive: 31.6 µM [inhibitor, single point]"
CC#CC(=O)N1CCCCC1C(=O)Nc1ccc(-n2nc(C)cc2C)cc1 (configuration not stated),inactive: 22.3%,
O=C(CN1C(=O)NC2(CCOCC2)C1=O)Nc1ccc(Cl)cc1F,,"inconclusive: 25.1 µM [inhibitor, partial curve]"
CCCCCCSc1ccc(-c2nc3ccc(C)cn3c2NCc2ccccc2)cc1,,"inconclusive: 44.7 µM [inhibitor, partial curve, poor fit]"
CCc1ccc(CNC(=O)c2cc(Cl)c(NC(=O)C3=C(C)OCCS3)cc2OC)cc1,,"inconclusive: 39.8 µM [inhibitor, single point]"
COC(=O)c1c(N(S(C)(=O)=O)S(C)(=O)=O)sc2c1CCN(c1ncc(C(F)(F)F)cc1Cl)C2,,"inconclusive: 28.2 µM [inhibitor, single point]"
Cn1cc(S(=O)(=O)N2CCCCC2)cc1C(=O)NCc1ccc(Cl)cc1,,"inconclusive: 141 µM [inhibitor, single point]"
O=C(Nc1ccncc1)c1ccc(Cl)c(Cl)c1,,"inconclusive: 39.8 µM [inhibitor, partial curve, poor fit]"
O=C(O)c1ncc(-c2ccccc2)cn1,,"inconclusive: 0.398 µM [inhibitor, full curve, poor fit]"
N#C/C(=C\c1cc(Cl)ccc1O)C(=O)NC1CCCCC1,,"inconclusive: 63.1 µM [inhibitor, partial curve, poor fit]"
CC(=O)Nc1ccc(NC(=O)CSc2nc(=O)n(CCCN3CCOCC3)c3c2CCC3)cc1,,"inconclusive: 35.5 µM [inhibitor, single point]"
COc1ccc(CNC(=O)C2Cc3c(-c4cccc(F)c4)ccnc3O2)cc1OC (configuration not stated),,"inconclusive: 89.1 µM [inhibitor, partial curve, poor fit]"
CC(=O)N1CCN(c2cc(-c3noc([C@@H]4CCCN4Cc4ccc(C(F)(F)F)cc4)n3)ccn2)CC1,inactive: 2.85%,
CCOC(=O)/C(C#N)=C/c1cc2ccc(C)cc2nc1Cl,inactive: -25.9%,
CCCc1sc(C(=O)Nc2ccccc2O)cc1CC,,active: 12.6 µM
O=C(c1cc(=O)c2cc(Br)ccc2o1)N(Cc1cccs1)c1ccccn1,,"inconclusive: 12.6 µM [inhibitor, full curve, poor fit]"
O=C(NC(=S)Nc1cccnc1Cl)c1ccc(F)cc1,,"inconclusive: 31.6 µM [inhibitor, partial curve]"
O=C(C[C@@H]1CCNC[C@@H]1Cc1cc(-c2ccccc2)on1)NCCN1CCOCC1,,"inconclusive: 50.1 µM [inhibitor, partial curve, poor fit]"
CCCCSc1nnc2c(n1)OC(c1ccc(C)s1)Nc1ccccc1-2 (configuration not stated),inactive: -12.8%,
CCS(=O)(=O)N1CC(=O)N(c2ccc(C)c(C)c2)C(C)(C(=O)NC2CCCCCC2)C1 (configuration not stated),,"inconclusive: 63.1 µM [inhibitor, partial curve, poor fit]"
Cc1nc2ccc(NC(=O)CCS(=O)(=O)c3ccc(Cl)cc3)cc2s1,inactive: 8.31%,
